Experimental data: publication PMC4392834
Results are given in words; binding and its absence hold for the method and conditions named. Binding seen in cells or lysates may run through a third protein.

Chains of the proteins cited; added tags and fusions are not shown.
UniProt P83949: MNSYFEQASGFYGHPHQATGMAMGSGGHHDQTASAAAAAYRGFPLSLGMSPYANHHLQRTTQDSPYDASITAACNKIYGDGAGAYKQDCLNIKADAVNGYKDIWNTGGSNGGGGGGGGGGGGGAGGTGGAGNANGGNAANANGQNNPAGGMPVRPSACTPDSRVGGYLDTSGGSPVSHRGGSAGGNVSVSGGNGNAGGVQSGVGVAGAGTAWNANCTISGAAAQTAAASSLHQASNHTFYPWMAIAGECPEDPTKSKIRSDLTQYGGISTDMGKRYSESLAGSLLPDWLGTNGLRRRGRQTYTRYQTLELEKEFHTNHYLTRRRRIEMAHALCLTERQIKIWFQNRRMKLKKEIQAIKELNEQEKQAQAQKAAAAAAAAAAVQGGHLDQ
UniProt P02833: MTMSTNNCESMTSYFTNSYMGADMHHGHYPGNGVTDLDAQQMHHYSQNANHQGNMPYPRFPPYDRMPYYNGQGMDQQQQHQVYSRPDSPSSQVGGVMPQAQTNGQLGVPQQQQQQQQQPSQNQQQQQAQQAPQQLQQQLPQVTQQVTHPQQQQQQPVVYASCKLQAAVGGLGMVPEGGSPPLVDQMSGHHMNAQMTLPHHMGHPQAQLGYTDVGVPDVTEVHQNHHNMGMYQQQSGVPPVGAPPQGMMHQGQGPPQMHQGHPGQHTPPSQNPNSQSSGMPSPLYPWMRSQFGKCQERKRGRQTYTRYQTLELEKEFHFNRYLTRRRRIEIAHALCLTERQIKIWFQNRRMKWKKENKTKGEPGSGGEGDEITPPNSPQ

Key:
[1] = molecular target: VC-Ubx (Drosophila melanogaster) (UniProt P83949); assay: split reporter; Venus BiFC: VC-Hox and VN-TF co-expressed in live Drosophila embryos with the corresponding Hox-Gal4 driver (abdA-Gal4 for AbdA); epidermis, stage 10-12, quantified at stage 10; affected if equal or lower than 50% of wild type, stronger if 120% or more
[2] = molecular target: VC-Antp (Drosophila melanogaster) (UniProt P02833); assay: as above

B1: VN-Kn (protein, UniProt P56721 1-575)
chain: MEWGRKLYPSAVSGPRSAGGLMFGLPPTAAVDMNQPRGPMTSLKEEPLGSRWAMQPVVDQSNLGIGRAHFEKQPPSNLRKSNFFHFVIALYDRAGQPIEIERTAFIGFIEKDSESDATKTNNGIQYRLQLLYANGARQEQDIFVRLIDSVTKQAIIYEGQDKNPEMCRVLLTHEVMCSRCCDKKSCGNRNETPSDPVIIDRFFLKFFLKCNQNCLKNAGNPRDMRRFQVVISTQVAVDGPLLAISDNMFVHNNSKHGRRAKRLDTTEGTGNTSLSISGHPLAPDSTYDGLYPPLPVATPCIKAISPSEGWTTGGATVIIVGDNFFDGLQVVFGTMLVWSELITSHAIRVQTPPRHIPGVVEVTLSYKSKQFCKGSPGRFVYVSALNEPTIDYGFQRLQKLIPRHPGDPEKLQKEIILKRAADLVEALYSMPRSPGGSTGFNSYAGQLAVSVQDGSGQWTEDDYQRAQSSSVSPRGGYCSSASTPHSSGGSYGATAASAAVAATANGYAPAPNMGTLSSSPGSVFNSTSMSAVSSTWHQAFVQHHHAATAHPHHHYPHPHQPWHNPAVSAATAAAV
In the case of B1, the binding [1] is reported as “no binding” and the binding [2] is reported as “no binding”.

B2: VN-Nautilus (protein, UniProt P22816 1-332)
chain: MTKYNSGSSEMPAAQTIKQEYHNGYGQPTHPGYGFSAYSQQNPIAHPGQNPHQTLQNFFSRFNAVGDASAGNGGAASISANGSGSSCNYSHANHHPAELDKPLGMNMTPSPIYTTDYDDENSSLSSEEHVLAPLVCSSAQSSRPCLTWACKACKKKSVTVDRRKAATMRERRRLRKVNEAFEILKRRTSSNPNQRLPKVEILRNAIEYIESLEDLLQESSTTRDGDNLAPSLSGKSCQSDYLSSYAGAYLEDKLSFYNKHMEKYGQFTDFDGNANGSSLDCLNLIVQSINKSTTSPIQNKATPSASDTQSPPSSGATAPTSLHVNFKRKCST
B2 was tested, and the binding [2] was “no binding”.

B3: VN-Zfh-1 (protein, UniProt P28166 1-1054)
chain: MLSCLAPSSSRFGQEDTIIQQSMPSTSPFAMQFPSLASTLLHHNQSPKHSNPGSSGIQDAHPNQPGAAADAFLVKCTQCHKRFPEYQSLSEHIASEHPHDKLNCGAAQPESDAEDEQSNMSGSSRRYAKSPLASNNNSSTANANNNSTSSQSMNNNSELAKNHNSANKMSPMCSPGSLTPGDLFAQLQHPPPQLPPHLHAQFMAAAASLAMQSARTASSPSQQQQQQLQQQQQLQQQQQHQMAMQQLLPPQLPGSNSSVGSNSAYDLDLSAPRSTSSPGSTTGDLSGAYPCMQCTASFASREQLEQHEQLHSPCGPAAVSNVSQTCRICHKAFANVYRLQRHMISHDESALLRKFKCKECDKAFKFKHHLKEHVRIHSGEKPFGCDNCGKRFSHSGSFSSHMTSKKCISMGLKLNNNRALLKRLEKSPGSASSASRRSPSDHGKGKLPEQPSLPGLPHPMSYFASDAQVQGGSAAPAPFPPFHPNYMNAALLAFPHNFMAAAAGLDPRVHPYSIQRLLQLSAAGQQQREEEREEQQKQQQHDEEETPDEPKLVMDIEEPETKEMAPTPEATEAATPIKREESREASPDPESYRSSSQAIKQEQEPLNVAEERQTPVEEHAPVEHAADLRCSRCSKQFNHPTELVQHEKVLCGLIKEELEQHFQQQQATSFALASASEEDEEDEEMDVEEEPRQESGERKVRVRTAINEEQQQQLKQHYSLNARPSRDEFRMIAARLQLDPRVVQVWFQNNRSRERKMQSFQNNQAAGAAPPMPIDSQASLTREDQPLDLSVKRDPLTPKSESSPPYIAPPSGEALNPEAINLSRKFSTSASMSPASISPSSAAALYFGAAPPPSPPNSQLDSTPRSGQAFPGLPPYMLPMSLPMEALFKMRPGGDFASNHALMNSIKLPDYRGTSLSPGGSEKRSWRDDDSRISHEDEFGAGVLMPPKPRRGKAETHGHAGDPDLPYVCDQCDKAFAKQSSLARHKYEHSGQRPYQCIECPKAFKHKHHLTEHKRLHSGEKPFQCSKCLKRFSHSGSYSQHMNHRYSYCKPYRE
For B3, the binding [1] was “no binding”.
